Assay results reported in the supplement of paper PMC10849652.
The list shows a part of the results.

The chains behind the UniProt entries cited, without tags or fusion partners. Where a name states a change or a piece, a line headed by the entry shows the natural chain unless it says otherwise.
UniProt Q86YC3: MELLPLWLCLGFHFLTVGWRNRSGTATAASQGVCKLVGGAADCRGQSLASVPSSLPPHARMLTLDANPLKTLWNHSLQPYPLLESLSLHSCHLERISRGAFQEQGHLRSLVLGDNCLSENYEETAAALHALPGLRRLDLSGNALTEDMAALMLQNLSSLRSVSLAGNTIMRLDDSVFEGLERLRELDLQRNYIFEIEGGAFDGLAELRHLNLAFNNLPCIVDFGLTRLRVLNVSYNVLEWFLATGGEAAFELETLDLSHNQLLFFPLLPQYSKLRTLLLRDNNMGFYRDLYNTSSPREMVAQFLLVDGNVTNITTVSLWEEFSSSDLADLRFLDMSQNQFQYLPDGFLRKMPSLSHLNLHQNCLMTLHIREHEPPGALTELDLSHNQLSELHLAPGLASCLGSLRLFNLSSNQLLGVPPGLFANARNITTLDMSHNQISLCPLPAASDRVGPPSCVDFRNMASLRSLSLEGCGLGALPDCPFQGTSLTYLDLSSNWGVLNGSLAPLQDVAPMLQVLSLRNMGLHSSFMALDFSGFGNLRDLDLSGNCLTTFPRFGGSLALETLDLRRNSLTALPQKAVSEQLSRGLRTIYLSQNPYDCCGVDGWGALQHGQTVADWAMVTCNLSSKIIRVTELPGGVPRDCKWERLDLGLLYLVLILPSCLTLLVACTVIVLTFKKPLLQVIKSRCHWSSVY
UniProt O00746: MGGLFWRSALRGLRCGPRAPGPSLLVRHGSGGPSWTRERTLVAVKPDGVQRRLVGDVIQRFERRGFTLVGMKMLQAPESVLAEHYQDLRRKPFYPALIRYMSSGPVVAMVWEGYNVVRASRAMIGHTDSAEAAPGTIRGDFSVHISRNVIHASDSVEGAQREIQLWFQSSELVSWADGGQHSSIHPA
UniProt P48645: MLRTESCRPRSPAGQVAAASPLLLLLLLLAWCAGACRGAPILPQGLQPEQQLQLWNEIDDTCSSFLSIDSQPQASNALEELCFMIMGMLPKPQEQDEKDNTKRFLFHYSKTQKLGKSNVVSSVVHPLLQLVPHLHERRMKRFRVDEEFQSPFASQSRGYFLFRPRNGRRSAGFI
UniProt Q8NC67: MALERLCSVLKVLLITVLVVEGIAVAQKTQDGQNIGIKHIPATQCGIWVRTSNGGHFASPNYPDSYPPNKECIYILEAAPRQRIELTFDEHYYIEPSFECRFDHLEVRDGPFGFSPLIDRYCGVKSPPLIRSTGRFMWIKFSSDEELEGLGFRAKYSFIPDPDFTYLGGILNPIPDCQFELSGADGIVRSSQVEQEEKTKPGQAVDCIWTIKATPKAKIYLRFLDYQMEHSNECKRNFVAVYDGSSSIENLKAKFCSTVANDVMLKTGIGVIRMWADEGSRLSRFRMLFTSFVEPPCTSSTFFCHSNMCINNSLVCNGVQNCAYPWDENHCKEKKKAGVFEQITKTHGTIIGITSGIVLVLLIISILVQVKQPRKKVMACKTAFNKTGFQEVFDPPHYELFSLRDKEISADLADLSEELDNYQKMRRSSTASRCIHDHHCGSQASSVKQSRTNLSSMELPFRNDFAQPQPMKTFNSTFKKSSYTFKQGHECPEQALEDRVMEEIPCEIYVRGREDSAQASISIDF
UniProt Q96L73: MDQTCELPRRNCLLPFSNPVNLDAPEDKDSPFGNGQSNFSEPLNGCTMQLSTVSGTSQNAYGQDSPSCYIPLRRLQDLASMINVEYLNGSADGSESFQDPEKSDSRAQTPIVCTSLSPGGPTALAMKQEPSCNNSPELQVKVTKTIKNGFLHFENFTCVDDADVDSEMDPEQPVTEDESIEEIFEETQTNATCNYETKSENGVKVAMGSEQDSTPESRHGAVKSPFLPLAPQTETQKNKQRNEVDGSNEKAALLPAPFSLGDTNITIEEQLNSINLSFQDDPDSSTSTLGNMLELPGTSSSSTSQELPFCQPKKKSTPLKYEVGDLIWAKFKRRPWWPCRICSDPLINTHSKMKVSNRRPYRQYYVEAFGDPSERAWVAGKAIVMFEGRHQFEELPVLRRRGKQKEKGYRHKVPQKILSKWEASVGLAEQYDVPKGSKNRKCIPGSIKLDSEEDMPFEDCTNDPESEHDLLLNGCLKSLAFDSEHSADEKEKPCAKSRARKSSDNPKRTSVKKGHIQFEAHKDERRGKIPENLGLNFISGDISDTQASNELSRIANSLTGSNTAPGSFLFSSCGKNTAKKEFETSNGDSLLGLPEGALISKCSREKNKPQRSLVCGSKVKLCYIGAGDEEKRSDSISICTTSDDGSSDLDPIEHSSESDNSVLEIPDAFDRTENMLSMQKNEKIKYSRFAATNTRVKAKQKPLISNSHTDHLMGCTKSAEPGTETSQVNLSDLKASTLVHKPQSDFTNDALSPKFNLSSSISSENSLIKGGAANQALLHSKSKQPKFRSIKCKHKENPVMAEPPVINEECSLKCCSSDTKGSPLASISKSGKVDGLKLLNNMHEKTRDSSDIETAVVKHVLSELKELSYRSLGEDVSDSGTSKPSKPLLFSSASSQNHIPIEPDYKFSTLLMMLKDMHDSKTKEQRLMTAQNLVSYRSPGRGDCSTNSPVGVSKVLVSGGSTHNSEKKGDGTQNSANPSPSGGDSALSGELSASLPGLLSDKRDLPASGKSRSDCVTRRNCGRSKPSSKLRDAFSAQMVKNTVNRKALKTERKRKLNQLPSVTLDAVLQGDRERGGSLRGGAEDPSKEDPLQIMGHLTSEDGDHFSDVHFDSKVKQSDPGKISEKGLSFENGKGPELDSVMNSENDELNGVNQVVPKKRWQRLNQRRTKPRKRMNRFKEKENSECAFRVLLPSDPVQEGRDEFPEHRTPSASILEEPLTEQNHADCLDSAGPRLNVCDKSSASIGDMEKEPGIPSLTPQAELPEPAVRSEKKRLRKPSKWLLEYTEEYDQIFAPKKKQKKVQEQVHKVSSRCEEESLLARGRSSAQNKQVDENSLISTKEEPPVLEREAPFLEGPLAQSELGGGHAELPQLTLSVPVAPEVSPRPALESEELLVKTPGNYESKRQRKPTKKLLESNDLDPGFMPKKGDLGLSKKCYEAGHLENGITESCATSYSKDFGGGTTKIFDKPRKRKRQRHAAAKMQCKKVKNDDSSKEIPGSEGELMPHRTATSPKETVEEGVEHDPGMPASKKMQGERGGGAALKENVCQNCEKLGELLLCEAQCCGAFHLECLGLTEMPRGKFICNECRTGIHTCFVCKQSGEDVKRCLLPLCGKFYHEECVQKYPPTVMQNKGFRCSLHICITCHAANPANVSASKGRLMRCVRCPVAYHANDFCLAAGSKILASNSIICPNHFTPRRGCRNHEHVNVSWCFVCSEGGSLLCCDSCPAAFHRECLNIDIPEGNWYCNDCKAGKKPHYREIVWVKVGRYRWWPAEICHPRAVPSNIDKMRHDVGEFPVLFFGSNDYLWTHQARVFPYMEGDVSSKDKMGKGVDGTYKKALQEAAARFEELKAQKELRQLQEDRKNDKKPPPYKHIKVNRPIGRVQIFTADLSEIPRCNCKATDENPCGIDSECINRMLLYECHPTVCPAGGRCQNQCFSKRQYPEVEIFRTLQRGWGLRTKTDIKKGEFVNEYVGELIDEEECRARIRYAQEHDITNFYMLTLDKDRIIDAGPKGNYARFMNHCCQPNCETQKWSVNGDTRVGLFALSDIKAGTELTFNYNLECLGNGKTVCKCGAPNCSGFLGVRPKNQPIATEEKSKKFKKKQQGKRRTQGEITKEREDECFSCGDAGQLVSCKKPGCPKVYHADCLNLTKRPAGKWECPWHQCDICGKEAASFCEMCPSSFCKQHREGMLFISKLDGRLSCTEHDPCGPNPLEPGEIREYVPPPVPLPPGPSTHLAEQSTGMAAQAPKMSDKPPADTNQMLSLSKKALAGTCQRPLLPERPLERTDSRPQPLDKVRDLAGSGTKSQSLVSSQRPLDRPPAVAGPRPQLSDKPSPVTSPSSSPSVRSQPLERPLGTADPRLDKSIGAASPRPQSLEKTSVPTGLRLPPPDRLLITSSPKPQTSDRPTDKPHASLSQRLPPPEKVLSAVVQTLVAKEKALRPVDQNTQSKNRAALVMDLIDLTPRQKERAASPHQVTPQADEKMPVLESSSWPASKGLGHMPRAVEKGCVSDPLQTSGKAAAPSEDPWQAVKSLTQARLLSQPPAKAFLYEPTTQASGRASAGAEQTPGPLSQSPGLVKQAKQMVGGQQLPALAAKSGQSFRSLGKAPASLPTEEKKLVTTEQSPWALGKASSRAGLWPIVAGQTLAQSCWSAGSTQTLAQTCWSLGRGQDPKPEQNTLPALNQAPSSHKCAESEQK
UniProt Q96MY1: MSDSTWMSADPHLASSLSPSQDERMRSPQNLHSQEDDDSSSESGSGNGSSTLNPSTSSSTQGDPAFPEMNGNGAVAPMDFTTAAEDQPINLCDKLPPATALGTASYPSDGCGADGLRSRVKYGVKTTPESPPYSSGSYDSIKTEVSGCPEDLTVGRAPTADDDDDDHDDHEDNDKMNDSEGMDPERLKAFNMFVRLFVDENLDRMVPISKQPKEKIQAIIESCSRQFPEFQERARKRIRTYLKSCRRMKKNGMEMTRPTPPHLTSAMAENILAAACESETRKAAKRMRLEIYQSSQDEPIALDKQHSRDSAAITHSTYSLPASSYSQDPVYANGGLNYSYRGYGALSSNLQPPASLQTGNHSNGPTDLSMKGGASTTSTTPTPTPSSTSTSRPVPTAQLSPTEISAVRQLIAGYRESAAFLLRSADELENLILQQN
UniProt Q9NPE3: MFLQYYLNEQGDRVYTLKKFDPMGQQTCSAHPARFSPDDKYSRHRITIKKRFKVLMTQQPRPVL
UniProt Q92859: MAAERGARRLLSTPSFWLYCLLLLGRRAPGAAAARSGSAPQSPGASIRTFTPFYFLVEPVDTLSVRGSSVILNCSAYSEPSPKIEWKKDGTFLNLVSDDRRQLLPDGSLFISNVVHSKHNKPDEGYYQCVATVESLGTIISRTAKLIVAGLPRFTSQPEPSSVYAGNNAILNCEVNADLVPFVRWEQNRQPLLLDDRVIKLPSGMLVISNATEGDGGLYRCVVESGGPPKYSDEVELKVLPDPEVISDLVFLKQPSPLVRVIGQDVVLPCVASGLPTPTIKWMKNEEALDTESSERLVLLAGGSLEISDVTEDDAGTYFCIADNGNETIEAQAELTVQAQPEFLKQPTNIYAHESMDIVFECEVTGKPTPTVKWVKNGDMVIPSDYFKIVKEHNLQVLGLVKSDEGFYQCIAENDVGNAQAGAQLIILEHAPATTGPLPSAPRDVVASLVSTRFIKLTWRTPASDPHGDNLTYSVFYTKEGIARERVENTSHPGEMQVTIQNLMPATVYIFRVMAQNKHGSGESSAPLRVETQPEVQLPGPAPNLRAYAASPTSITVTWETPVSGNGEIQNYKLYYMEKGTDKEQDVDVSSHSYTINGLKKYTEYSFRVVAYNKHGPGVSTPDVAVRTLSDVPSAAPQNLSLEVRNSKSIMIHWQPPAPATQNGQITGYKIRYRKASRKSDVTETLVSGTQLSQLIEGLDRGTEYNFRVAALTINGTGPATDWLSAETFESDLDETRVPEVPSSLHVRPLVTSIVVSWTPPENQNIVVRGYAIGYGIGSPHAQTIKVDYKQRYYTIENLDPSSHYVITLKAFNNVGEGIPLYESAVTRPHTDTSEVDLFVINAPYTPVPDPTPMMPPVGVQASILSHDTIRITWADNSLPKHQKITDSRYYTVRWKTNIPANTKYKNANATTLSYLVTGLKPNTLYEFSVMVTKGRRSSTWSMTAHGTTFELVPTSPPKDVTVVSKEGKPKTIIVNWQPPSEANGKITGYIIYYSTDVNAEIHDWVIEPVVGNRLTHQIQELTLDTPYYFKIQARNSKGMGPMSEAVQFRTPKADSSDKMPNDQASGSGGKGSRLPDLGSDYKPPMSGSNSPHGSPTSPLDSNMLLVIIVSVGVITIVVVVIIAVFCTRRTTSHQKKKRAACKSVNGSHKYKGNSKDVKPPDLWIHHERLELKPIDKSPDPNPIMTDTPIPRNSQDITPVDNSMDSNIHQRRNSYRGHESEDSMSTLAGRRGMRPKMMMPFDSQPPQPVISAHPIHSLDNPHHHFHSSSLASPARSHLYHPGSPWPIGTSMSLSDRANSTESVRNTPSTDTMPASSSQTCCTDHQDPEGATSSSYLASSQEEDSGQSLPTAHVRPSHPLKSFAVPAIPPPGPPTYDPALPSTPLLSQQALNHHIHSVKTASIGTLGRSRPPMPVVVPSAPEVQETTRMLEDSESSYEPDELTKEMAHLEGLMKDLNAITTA
UniProt Q96T66: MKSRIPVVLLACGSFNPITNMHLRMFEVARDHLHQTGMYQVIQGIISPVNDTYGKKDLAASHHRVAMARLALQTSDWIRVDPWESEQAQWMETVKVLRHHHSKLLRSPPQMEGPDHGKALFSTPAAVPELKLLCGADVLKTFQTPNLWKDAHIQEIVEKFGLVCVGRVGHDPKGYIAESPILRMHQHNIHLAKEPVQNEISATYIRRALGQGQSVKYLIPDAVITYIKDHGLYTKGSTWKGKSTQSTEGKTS

Key:
Assay in all cases: log2 fold change, soluble protein after heating vs DMSO (PISA); higher = thermal stabilisation; K562 cells, 10 uM, 30 min; active = over 0.2 and 3.5 SD of the protein, either way, in both replicates (recomputed)
[1] = compound: CC1=CC=C(C=C1)SC2=C3C=C(SC3=CN=C2)C(=O)N
Outline: (§1)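 K562 cells (2×10^6 cells/mL) were treated with 10 μM compound for 30 min, and aliquots were heated for 3 min over 48°C-58°C. Pooled aliquots were extracted in PBS with 0.5% NP-40 at 4°C, and the supernatant after 21,000xg for 90 min was measured by TMTpro 16plex LC-MS/MS with channel sums equalised. Reported thermal stability, relative to control samples and from duplicates, is a log2 fold change.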

[2] = compound: CCCS(=O)(=O)Nc1ccc(F)c(C(=O)c2c[nH]c3ncc(Cl)cc23)c1F
Outline: as §1

[3] = compound: CC[C@@H]1C(=O)N(C)c2cnc(Nc3ccc(C(=O)N[C@H]4CC[C@H](N5CCN(CC6CC6)CC5)CC4)cc3OC)nc2N1C(C)C [volasertib]
Outline: as §1

[4] = compound: CC[C@H](C)N1C=C(C2=C(C=C(C=C21)C3=CN=C(C=C3)N4CCNCC4)C(=O)NCC5=C(C=C(NC5=O)C)C)C
Outline: as §1

[5] = compound: CCn1cc(-c2ccnc3[nH]c(-c4cccc(CN(C)C)c4)cc23)c(-c2ccc(NC(=O)N(C)C)cc2)n1
Outline: as §1

[6] = compound: CN1CCC(CNc2ccc3ncc(-c4cccc(OC(F)(F)F)c4)n3n2)CC1
Outline: as §1

[7] = compound: CC1=C(C=C(C=C1)NC(=O)C2=CC(=CC=C2)N(C)C)NC(=O)C3=CC=C(C=C3)O
Outline: as §1

[8] = compound: CC1=NC(=CC=C1)C2=C(N=C(N2)C(C)(C)C)C3=CC4=NC=CN=C4C=C3
Outline: as §1

[9] = compound: CCCCN(Cc1ccc(C(=O)NO)cc1)C(=O)Nc1ccccc1 [Nexturastat A]
Outline: as §1

[10] = compound: CCCS(=O)(=O)Nc1ccc(F)c(C(=O)c2c[nH]c3ncc(-c4ccc(Cl)cc4)cc23)c1F [vemurafenib]
Outline: as §1

[11] = compound: CCCc1cc(C)[nH]c(=O)c1CNC(=O)c1cc(-c2ccnc(N3CCN(C)CC3)c2)cc2c1cnn2C(C)C
Outline: as §1

[12] = compound: CCN(CC)Cc1ccc2cc(COC(=O)Nc3ccc(C(=O)NO)cc3)ccc2c1 [givinostat]
Outline: as §1

[13] = compound: CCN(CCCOc1ccc2c(Nc3cc(CC(=O)Nc4cccc(F)c4)[nH]n3)ncnc2c1)CCOP(=O)(O)O [barasertib]
Outline: as §1

[14] = compound: CC[C@@H]1C(=O)N(C)c2cnc(Nc3ccc(C(=O)NC4CCN(C)CC4)cc3OC)nc2N1C1CCCC1
Outline: as §1

[15] = compound: CC[C@H](C)[C@@H](C(=O)N[C@@H]([C@@H](C)O)C(=O)N[C@@H](CC(C)C)C(=O)[C@]1(CO1)C)NC(=O)[C@H]([C@@H](C)CC)N(C)C(=O)C [epoxomicin]
Outline: as §1

[16] = compound: CN(C)CC(=O)Nc1ccc2[nH]c(=O)c3ccccc3c2c1
Outline: as §1

[17] = compound: CN1C2=C(C3=C1C(=O)N(N=C3)CC4=CC(=CC=C4)N)SC(=C2)S(=O)C
Outline: as §1

[18] = compound: CCn1c(C(=O)N(C2CC2)C2CC2)cc2c3c(ncn3C)c(Nc3cc(C)n(C)n3)nc21
Outline: as §1

[19] = compound: CC1=C(C=C(C=C1)NC(=O)C2=CC(=CC=C2)C(C)(C)C#N)NC3=CC4=C(C=C3)N=CN(C4=O)C
Outline: as §1

[20] = compound: CN(CCOC1=CC=C(C=C1)C[C@H]2C(=O)NC(=O)S2)C3=CC=CC=N3 (racemic) [rosiglitazone]
Outline: as §1

Measured: log2 fold change

NRROS (UniProt Q86YC3)
inactive: [1] -0.027 | [2] -0.191 | [3] -0.003 | [4] 0.031 | [5] 0.045 | [6] 0.063

NKAP (UniProt Q8N5F7)
inactive: [7] 0.233 | [1] 0.017 | [8] 0.052 | [9] 0.042 | [10] 0.073 | [2] 0.046 | [11] 0.15 | [12] 0.044 | [13] -0.165 | [14] 0.026 | [3] -0.3 | [4] 0.082 | [15] -0.109 | [5] 0.092 | [16] 0.052 | [17] -0.025 | [6] -0.164

NME4 (UniProt O00746)
inactive: [7] -0.057 | [11] -0.023 | [12] -0.063 | [14] 0.024 | [18] -0.214 | [5] 0.021 | [6] 0.089

NMU (UniProt P48645)
inactive: [7] -0.052 | [1] 0.09 | [9] 0.283 | [10] 0.067 | [2] -0.127 | [12] 0.001 | [13] 0.002 | [14] 0.094 | [3] 0.072 | [4] 0 | [15] 0.077 | [5] 0.008 | [16] -0.017 | [17] -0.008 | [6] 0.271
active: [8] 0.411

NR2C1 (UniProt P13056)
inactive: [19] -0.045 | [8] 0.192 | [9] -0.114 | [10] -0.006 | [11] -0.15 | [13] 0.096 | [4] -0.009 | [15] 0.245 | [16] -0.14 | [20] -0.15

Pulled one by one from above (two):
NMU (UniProt P48645)
inactive: [7] -0.052 | [1] 0.09 | [9] 0.283 | [10] 0.067 | [2] -0.127 | [12] 0.001 | [13] 0.002 | [14] 0.094 | [3] 0.072 | [4] 0 | [15] 0.077 | [5] 0.008 | [16] -0.017 | [17] -0.008 | [6] 0.271
active: [8] 0.411

NR2C1 (UniProt P13056)
inactive: [19] -0.045 | [8] 0.192 | [9] -0.114 | [10] -0.006 | [11] -0.15 | [13] 0.096 | [4] -0.009 | [15] 0.245 | [16] -0.14 | [20] -0.15

(cont.)

NIPSNAP2 (UniProt C9J7B1)
inactive: [19] 0.067 | [11] -0.182 | [13] 0.01

NETO2 (UniProt Q8NC67)
inactive: [10] -0.019 | [16] -0.007

NOTCH1 (UniProt P46531)
inactive: [9] 0.06 | [4] 0.023 | [15] -0.097

NSD1 (UniProt Q96L73)
inactive: [19] -0.062 | [8] 0.033 | [11] 0.074 | [12] -0.045 | [13] 0.044 | [14] 0.056 | [4] 0.013 | [18] 0.071 | [5] -0.155 | [20] -0.013 | [17] 0.021 | [6] -0.205

NKTR (UniProt P30414)
inactive: [1] -0.041 | [2] -0.4 | [11] -0.045 | [12] 0.532 | [13] 0.042 | [3] -0.152

NPRL3 (UniProt Q12980)
inactive: [12] -0.189 | [18] -0.117 | [17] -0.056

NOL4L (UniProt Q96MY1)
inactive: [19] -0.062 | [9] 0.085 | [12] 0.073 | [4] 0.101 | [15] -0.088 | [18] -0.078 | [17] 0.081

NOP10 (UniProt Q9NPE3)
inactive: [7] -0.034 | [1] -0.196 | [8] 0.136 | [2] -0.094 | [11] 0.027 | [12] 0.029 | [13] -0.062 | [3] 0.056 | [4] -0.051 | [18] -0.061 | [20] -0.107 | [17] 0.136

NEO1 (UniProt Q92859)
inactive: [7] 0.122 | [10] 0.039 | [11] -0.216 | [14] -0.01 | [4] -0.086 | [16] -0.021

NFKB2 (UniProt Q00653)
inactive: [7] -0.003 | [1] -0.052 | [8] 0.018 | [9] 0.001 | [2] -0.002 | [11] -0.165 | [13] 0.059 | [14] -0.023 | [3] -0.017 | [4] 0.064 | [15] -0.024 | [20] -0.019

NMRK1 (UniProt Q9NWW6)
inactive: [12] 0.138 | [18] 0.077 | [17] 0.065

NOS1AP (UniProt O75052)
inactive: [7] -0.016 | [1] 0.08 | [9] -0.058 | [10] -0.335 | [2] -0.161 | [11] 0.101 | [12] -0.117 | [13] 0.046 | [14] 0.092 | [3] 0.035 | [15] 0.056 | [16] 0.225

NMNAT3 (UniProt Q96T66)
inactive: [19] 0.049 | [1] 0.04 | [9] -0.022 | [2] -0.045 | [11] 0.005 | [12] 0.451 | [13] 0.148 | [14] -0.005 | [3] -0.084 | [15] 0.005 | [18] -0.122 | [20] -0.258 | [17] -0.174

NSA2 (UniProt O95478)
inactive: [9] 0.29 | [13] 0.104 | [15] -0.261 | [5] 0.038 | [20] 0.161 | [6] 0.329
